Assay results from publication PMC11111408, “Concurrent inhibition of oncogenic and wild-type RAS-GTP for cancer therapy” (Nature, 2024).
Further values from the same series stand in other lists.

Tested on: PRISM DNA-barcoded human tumour cell lines
Assay: PRISM pooled cell viability assay;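 further: 8 threefold dilutions from 10 µM with 5 days of exposure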
Format: cell-based
Design: Area under the curve (AUC): scale not given here
Settings: for PRISM AUC: KRAS MUT
Experimental: Cells were then lysed in TCL mRNA lysis buffer, and then PCR with reverse transcription was performed. Detection of the barcodes and univariate and multivariate analysis was then performed as previously described. Data analysis is described in the Supplementary Methods. Up-to-date code for our analysis is at the github link: https://github.com/cmap/dockerized_mts.
For every gene with non-silent mutations in at least four cell-lines, we compared the AUC values between cells with and without those mutations using a t-test. This analysis was carried out for: (i) the full dataset; (ii) excluding cell lines with non-silent KRAS mutations; and (iii) excluding cell lines that have either KRAS or NRAS non-silent mutations.

[1] = NB4_HAEMATOPOIETIC_AND_LYMPHOID_TISSUE

## CCn1c(-c2cc(N3CCN(C4CC4)CC3)cnc2[C@H](C)OC)c2c3cc(ccc31)-c1csc(n1)C[C@H](NC(=O)[C@H]1[C@@H]3COC[C@@H]31)C(=O)N1CCC[C@H](N1)C(=O)OCC(C)(C)C2 [RMC-7977]
LXF289_LUNG
  Area under the curve (AUC): 0.6907
M059K_CENTRAL_NERVOUS_SYSTEM
  Area under the curve (AUC): 0.7622
MALME3M_SKIN
  Area under the curve (AUC): 1
MB1_THYROID
  Area under the curve (AUC): 0.7342
MC116_HAEMATOPOIETIC_AND_LYMPHOID_TISSUE
  Area under the curve (AUC): 0.918
MCAS_OVARY
  Area under the curve (AUC): 0.6256
MCC26_SKIN
  Area under the curve (AUC): 0.917
MCC142_SKIN
  Area under the curve (AUC): 0.7244
MCF7_BREAST
  Area under the curve (AUC): 0.8296
MDAMB175VII_BREAST
  Area under the curve (AUC): 0.5331
MDAMB231_BREAST
  Area under the curve (AUC): 0.6442
MDAMB361_BREAST
  Area under the curve (AUC): 0.8572
MDAMB435S_SKIN
  Area under the curve (AUC): 0.9961
MDAMB436_BREAST
  Area under the curve (AUC): 0.8407
MDAMB453_BREAST
  Area under the curve (AUC): 0.731
MDAMB468_BREAST
  Area under the curve (AUC): 0.7126
MDST8_LARGE_INTESTINE
  Area under the curve (AUC): 0.9473
MEG01_HAEMATOPOIETIC_AND_LYMPHOID_TISSUE
  Area under the curve (AUC): 0.4846
MEL285_UVEA
  Area under the curve (AUC): 0.7295
MEL290_UVEA
  Area under the curve (AUC): 0.8928
MELHO_SKIN
  Area under the curve (AUC): 1
MELJUSO_SKIN
  Area under the curve (AUC): 0.3982
MEWO_SKIN
  Area under the curve (AUC): 0.7209
MFE280_ENDOMETRIUM
  Area under the curve (AUC): 0.6754
MFE296_ENDOMETRIUM
  Area under the curve (AUC): 0.8356
MFE319_ENDOMETRIUM
  Area under the curve (AUC): 0.9941
MG63_BONE
  Area under the curve (AUC): 0.8866
MHHES1_BONE
  Area under the curve (AUC): 0.8228
MHHNB11_AUTONOMIC_GANGLIA
  Area under the curve (AUC): 0.7124
MIAPACA2_PANCREAS
  Area under the curve (AUC): 0.3588
MKN1_STOMACH
  Area under the curve (AUC): 0.6619
MKN7_STOMACH
  Area under the curve (AUC): 0.5948
MKN45_STOMACH
  Area under the curve (AUC): 0.3337
MKN74_STOMACH
  Area under the curve (AUC): 0.8298
MM1S_HAEMATOPOIETIC_AND_LYMPHOID_TISSUE
  PRISM AUC: 0.6158
MM127_SKIN
  Area under the curve (AUC): 0.7266
MMNK1_BILIARY_TRACT
  Area under the curve (AUC): 0.999
MOLM13_HAEMATOPOIETIC_AND_LYMPHOID_TISSUE
  Area under the curve (AUC): 0.3776
MOLP2_HAEMATOPOIETIC_AND_LYMPHOID_TISSUE
  Area under the curve (AUC): 0.849
MOLT3_HAEMATOPOIETIC_AND_LYMPHOID_TISSUE
  Area under the curve (AUC): 0.8414
MOLT16_HAEMATOPOIETIC_AND_LYMPHOID_TISSUE
  Area under the curve (AUC): 0.5675
MONOMAC1_HAEMATOPOIETIC_AND_LYMPHOID_TISSUE
  Area under the curve (AUC): 0.6697
MONOMAC6_HAEMATOPOIETIC_AND_LYMPHOID_TISSUE
  Area under the curve (AUC): 0.7004
MON_SOFT_TISSUE
  Area under the curve (AUC): 0.3222
MP41_UVEA
  Area under the curve (AUC): 0.8614
MPP89_PLEURA
  Area under the curve (AUC): 0.9924
MS751_CERVIX
  Area under the curve (AUC): 0.735
MSTO211H_PLEURA
  Area under the curve (AUC): 0.6492
NALM6_HAEMATOPOIETIC_AND_LYMPHOID_TISSUE
  Area under the curve (AUC): 0.8351
NB1_AUTONOMIC_GANGLIA
  Area under the curve (AUC): 0.6342
[1]
  Area under the curve (AUC): 0.5266
  PRISM AUC: 0.232
NCCIT_TESTIS
  Area under the curve (AUC): 1
NCIH23_LUNG
  Area under the curve (AUC): 0.6252
NCIH28_PLEURA
  Area under the curve (AUC): 0.8384
NCIH82_LUNG
  Area under the curve (AUC): 0.8492
NCIH196_LUNG
  Area under the curve (AUC): 1
NCIH211_LUNG
  Area under the curve (AUC): 0.8183
NCIH226_LUNG
  Area under the curve (AUC): 0.705
NCIH292_LUNG
  Area under the curve (AUC): 0.6153
NCIH322_LUNG
  Area under the curve (AUC): 0.6227
NCIH358_LUNG
  Area under the curve (AUC): 0.2941
NCIH441_LUNG
  Area under the curve (AUC): 0.4711
NCIH446_LUNG
  Area under the curve (AUC): 0.9739
NCIH460_LUNG
  Area under the curve (AUC): 0.4183
  PRISM AUC: 0.2192
NCIH508_LARGE_INTESTINE
  Area under the curve (AUC): 0.6847
NCIH520_LUNG
  Area under the curve (AUC): 0.8097
NCIH522_LUNG
  Area under the curve (AUC): 0.9025
NCIH524_LUNG
  Area under the curve (AUC): 0.9063
NCIH596_LUNG
  Area under the curve (AUC): 0.7005
NCIH647_LUNG
  Area under the curve (AUC): 0.7634
NCIH650_LUNG
  Area under the curve (AUC): 0.6613
  PRISM AUC: 0.429
NCIH661_LUNG
  Area under the curve (AUC): 0.8278
NCIH727_LUNG
  Area under the curve (AUC): 0.6359
NCIH747_LARGE_INTESTINE
  Area under the curve (AUC): 0.3921
NCIH838_LUNG
  Area under the curve (AUC): 0.8455
NCIH841_LUNG
  Area under the curve (AUC): 0.941
NCIH1048_LUNG
  Area under the curve (AUC): 0.6675
NCIH1092_LUNG
  Area under the curve (AUC): 0.6271
NCIH1299_LUNG
  Area under the curve (AUC): 0.6889
NCIH1339_LUNG
  Area under the curve (AUC): 0.6849
NCIH1341_LUNG
  Area under the curve (AUC): 0.6214
NCIH1355_LUNG
  Area under the curve (AUC): 0.6596
NCIH1373_LUNG
  Area under the curve (AUC): 0.5107
NCIH1437_LUNG
  Area under the curve (AUC): 0.7917
NCIH1563_LUNG
  Area under the curve (AUC): 0.7144
NCIH1568_LUNG
  Area under the curve (AUC): 0.7755
NCIH1573_LUNG
  Area under the curve (AUC): 0.6866
  PRISM AUC: 0.4531
NCIH1581_LUNG
  Area under the curve (AUC): 0.7972
NCIH1623_LUNG
  Area under the curve (AUC): 0.8649
NCIH1648_LUNG
  Area under the curve (AUC): 0.3071
NCIH1650_LUNG
  Area under the curve (AUC): 0.797
NCIH1651_LUNG
  Area under the curve (AUC): 0.9043
NCIH1693_LUNG
  Area under the curve (AUC): 0.6784
NCIH1694_LUNG
  Area under the curve (AUC): 0.767
NCIH1703_LUNG
  Area under the curve (AUC): 0.7407
NCIH1792_LUNG
  Area under the curve (AUC): 0.4978
NCIH1793_LUNG
  Area under the curve (AUC): 0.6566
NCIH1838_LUNG
  Area under the curve (AUC): 0.5835
NCIH1876_LUNG
  Area under the curve (AUC): 1
NCIH1915_LUNG
  Area under the curve (AUC): 0.7374
NCIH1944_LUNG
  Area under the curve (AUC): 0.6363
NCIH1975_LUNG
  Area under the curve (AUC): 0.6858
NCIH2004RT_SOFT_TISSUE
  Area under the curve (AUC): 0.7786
NCIH2009_LUNG
  Area under the curve (AUC): 0.6469
  PRISM AUC: 0.5685
NCIH2023_LUNG
  Area under the curve (AUC): 0.6182
NCIH2052_PLEURA
  Area under the curve (AUC): 0.5755
NCIH2077_LUNG
  Area under the curve (AUC): 0.7082
NCIH2087_LUNG
  Area under the curve (AUC): 0.63
NCIH2110_LUNG
  Area under the curve (AUC): 0.7052
NCIH2122_LUNG
  Area under the curve (AUC): 0.5463
NCIH2126_LUNG
  Area under the curve (AUC): 0.7619
NCIH2170_LUNG
  Area under the curve (AUC): 0.7103
NCIH2171_LUNG
  Area under the curve (AUC): 0.9478
